PubChem BioAssay AID686937 | Drosophila RNAi Screening Center | 2013
In all, the deposit lists about 23,000 reagents; this is a random part of those that have a named target and a result. 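Reduced-secretion tags in replicate 1 do not always agree with the z-scores; no criterion for assigning the tags was given.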 A plus sign joins genes that one reagent is predicted to hit. The record does not give: the amount of reagent.

Assay: 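Knock-downs that reduce output of a secreted reporter enzyme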 (primary screen)
Cells: Drosophila S2 cells expressing secreted horseradish peroxidase
Knock-down reagent: long dsRNA against Drosophila genes
Timing: about 5.5 days (5 days dsRNA, then 12 h reporter induction)
Treatment: reporter expression induced after 5 days of dsRNA, read 12 h later; inducer not stated
Detection: 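Chemiluminescent measurement of peroxidase in the medium 12 h after reporter induction, following 5 days of dsRNA, given as a z-score per plate; higher means more secretion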
Direction: z-score: higher = more reporter secreted into medium

| z-score, replicate 1 | z-score, replicate 2 | z-score, replicate 3 | z-score, replicate 4 | phenotype, replicate 1 | target gene | DRSC id |
| --- | --- | --- | --- | --- | --- | --- |
| -0.03 | 0.44 | – | – | – | CG12182 | DRSC08142 |
| 0.42 | 0.39 | – | – | – | CG8501 | DRSC07198 |
| 0.02 | 0.14 | – | – | – | CG6225 | DRSC15996 |
| -0.11 | -0.26 | – | – | – | sun (stunted) | DRSC20140 |
| 0.03 | 0.42 | – | – | – | CadN2 (Cadherin-N2) | DRSC03062 |
| 0.27 | 0.39 | – | – | – | CadN2 (Cadherin-N2) | DRSC03063 |
| 0.14 | 0.46 | – | – | – | CadN2 (Cadherin-N2) | DRSC03064 |
| 0.02 | 0.32 | – | – | – | CG31683 + CG18858 | DRSC02703 |
| 0.24 | 0.01 | – | – | – | CG43996 + CG43997 | DRSC19456 |
| 0.24 | 0.33 | – | – | – | CG43996 + CG43997 | DRSC19457 |
| 0.38 | 0.47 | – | – | – | CG14947 | DRSC02429 |
| 0.87 | 0.44 | – | – | – | toc (toucan) | DRSC00169 |
| 0.29 | 0.2 | – | – | – | toc (toucan) | DRSC00171 |
| 0.21 | 0.3 | – | – | – | toc (toucan) | DRSC00842 |
| 0.06 | 0.32 | – | – | – | CG17237 | DRSC00491 |
| 0.09 | -0.49 | – | – | – | Tengl3 (Testis EndoG-Like 3) | DRSC22288 |
| 0.35 | 0.38 | – | – | – | qkr58E-3 (quaking related 58E-3) | DRSC04711 |
| 0.45 | 0.23 | – | – | – | sturkopf | DRSC08637 |
| 0.12 | 0.24 | – | – | – | krimp (krimper) | DRSC06578 |
| -0.01 | 0.14 | – | – | – | CG32301 | DRSC08613 |
| 0.44 | 0.12 | – | – | – | CG3817 | DRSC15515 |
| -0.22 | 0.18 | – | – | – | CG18870 | DRSC04313 |
| 0.31 | 0.31 | – | – | – | otk2 (off-track2) | DRSC07303 |
| 0.13 | 0.49 | – | – | – | Cap-G (Chromosome associated protein G) | DRSC06652 |
| 0.09 | -0.07 | – | – | – | Cap-G (Chromosome associated protein G) | DRSC06653 |
| -2.86 | -1.18 | – | – | reduced secretion | Cap-G (Chromosome associated protein G) | DRSC21805 |
| -1.8 | -0.88 | – | – | reduced secretion | rin (rasputin) | DRSC17045 |
| 0.3 | 0.1 | – | – | – | RalGPS (Ral GEF with PH domain and SH3 binding motif) | DRSC06941 |
| 0.1 | 0.15 | – | – | – | CG7402 | DRSC10839 |
| 0.14 | 0.16 | – | – | – | Cox10 (Cytochrome c oxidase assembly factor 10) | DRSC02804 |
| 0.28 | 0.35 | – | – | – | Gbp3 (Growth-blocking peptide 3) | DRSC15206 |
| 0.08 | 0.43 | – | – | – | CG3165 | DRSC00573 |
| 0.21 | 0.06 | – | – | – | CG44251 | DRSC06856 |
| -0.05 | 0 | – | – | – | CG32236 | DRSC08117 |
| 0.3 | 0.26 | – | – | – | CG30384 | DRSC06032 |
| 0.35 | 0.13 | – | – | – | CG33116 | DRSC02045 |
| -0.01 | 0.22 | – | – | – | CG3713 | DRSC18648 |
| 0.27 | 0.21 | – | – | – | CG12984 | DRSC11693 |
| 0 | -0.52 | – | – | – | Prp5 (pre-mRNA processing factor 5) | DRSC19975 |
| 0.34 | 0.49 | – | – | – | Prx3 (Peroxiredoxin 3) | DRSC15883 |
| 0.59 | 0.43 | – | – | – | CG5819 | DRSC04520 |
| -0.65 | 0.25 | – | – | – | CG11404 | DRSC11656 |
| 0.85 | 0.71 | – | – | – | nrv3 (nervana 3) | DRSC03097 |
| 0.35 | 0.45 | – | – | – | swi2 | DRSC06457 |
| -1.52 | -1.44 | – | – | reduced secretion | AGO1 (Argonaute-1) | DRSC05912 |
| -0.26 | 0.08 | – | – | – | CG30289 | DRSC03870 |
| 0.47 | 0.45 | – | – | – | CR11235 (pseudo) | DRSC20480 |
| 0.38 | 0.29 | – | – | – | Rcd6 (Reduction in Cnn dots 6) | DRSC06054 |
| 0.19 | 0.21 | – | – | – | CG1647 | DRSC15134 |
| 0.18 | 0.25 | – | – | – | Obp44a (Odorant-binding protein 44a) | DRSC06838 |
| 0.33 | 0.36 | – | – | – | Vha36-3 (Vacuolar H[+] ATPase 36kD subunit 3) | DRSC18615 |
| 0.24 | 0.39 | – | – | – | sac (sterile affecting ciliogenesis) | DRSC12237 |
| 0.01 | 0.68 | – | – | – | CG41020 (retired record) | DRSC20866 |
| 0.05 | 0.13 | – | – | – | CG7049 | DRSC08587 |
| 0.46 | 0.3 | – | – | – | CG11550 | DRSC14326 |
| -0.61 | 0.11 | – | – | – | nrv2 (nervana 2) | DRSC00948 |
| 0.12 | 0.13 | – | – | – | nrv2 (nervana 2) | DRSC03383 |
| 0.01 | 0.29 | – | – | – | CG32026 | DRSC08950 |
| 0.03 | 0.13 | – | – | – | CG15879 | DRSC08487 |
| -1.5 | -0.52 | – | – | reduced secretion | E2f1 (E2F transcription factor 1) | DRSC16655 |
| 0.2 | 0.02 | – | – | – | CG34231 | DRSC05323 |
| 0.02 | 0.53 | – | – | – | CG15096 | DRSC06525 |
| 0.24 | 0.06 | – | – | – | Ppi1 (Protein phosphatase 1c interacting protein 1) | DRSC15421 |
| 0.27 | 0.48 | – | – | – | CG17300 | DRSC10260 |
| 0.23 | 0.34 | – | – | – | CG7140 | DRSC11799 |
| 0.45 | 0.4 | – | – | – | CG10177 | DRSC14201 |
| 0.06 | 0.26 | – | – | – | thoc7 | DRSC08512 |
| 0.13 | 0.17 | – | – | – | gammaSnap1 (gamma Soluble NSF attachment protein 1) | DRSC04686 |
| 0.01 | 0.19 | – | – | – | DZIP1 | DRSC14620 |
| -0.39 | -0.59 | – | – | – | Ubc10 (Ubiquitin conjugating enzyme 10) | DRSC07568 |
| 0.41 | 0.29 | – | – | – | lgs (legless) | DRSC17152 |
| 0.41 | 0.36 | – | – | – | CG7460 | DRSC10850 |
| 0.26 | 0.4 | – | – | – | CG9717 | DRSC16543 |
| 0.2 | 0.27 | – | – | – | CG8892 | DRSC03121 |
| 0.31 | 0.41 | 0.95 | 0.93 | – | Corin | DRSC06818 |
| 0.15 | 0.16 | – | – | – | CG8326 | DRSC20103 |
| -0.03 | 0.24 | – | – | – | FeCH (Ferrochelatase) | DRSC16948 |
| 0.17 | 0.35 | – | – | – | LanA (Laminin A) | DRSC11207 |
| 0.42 | 0.45 | – | – | – | cu (curled) | DRSC15643 |
| 0.62 | 0.82 | – | – | – | cu (curled) | DRSC15648 |
| 0.52 | 0.52 | – | – | – | schlank | DRSC18102 |
| 0.4 | 0.22 | – | – | – | schlank | DRSC18313 |

Sorted by “z-score, replicate 1” (descending): some entries from above.
| z-score, replicate 1 | z-score, replicate 2 | z-score, replicate 3 | z-score, replicate 4 | phenotype, replicate 1 | target gene | DRSC id |
| --- | --- | --- | --- | --- | --- | --- |
| 0.44 | 0.12 | – | – | – | CG3817 | DRSC15515 |
| 0.31 | 0.31 | – | – | – | otk2 (off-track2) | DRSC07303 |
| 0.13 | 0.49 | – | – | – | Cap-G (Chromosome associated protein G) | DRSC06652 |
| 0.12 | 0.24 | – | – | – | krimp (krimper) | DRSC06578 |
| -0.01 | 0.14 | – | – | – | CG32301 | DRSC08613 |
| -0.22 | 0.18 | – | – | – | CG18870 | DRSC04313 |
